Laboratory results: patent EP2293808B1, “AN SYNTHETIC PEPTIDE CONTAINING BONE FORMING PEPTIDE 1(BFP 1) FOR STIMULATING OSTEOBLAST DIFFERENTIATION, AND PHARMACEUTICAL COMPOSITION COMPRISING THE SYNTHETIC PEPTIDE” (Industry Foundation Of Chonnam National University, priority 2008, dated 2012)
At least one peptide structure holds a part that was inferred or is arguable (an end, a ring closure or a residue). Ends that are not written are not given here.

Assays:
Format in all cases: cell-based, Balb/c mouse
mesenchymal stem cells [1] = test: Chemotaxis and cell migration assay during differentiation into osteoblasts; settings: ODM supplemented with BFP 1, compared with BMP-7; FIG. 13
mesenchymal stem cells [2] = test: ALP and calcium concentrations measured with a commercially available diagnostic kit; settings: 1 µg/ml, FIG. 8
mesenchymal stem cells [3] = test: Fluorescence microscopy of surface marker CD44 (DAPI and anti-CD44 antibody staining); settings: ODM with BFP 1 versus ODM alone, FIG. 7
mesenchymal stem cells [4] = test: Fluorescent antibody microscopy of osteocalcin, alkaline phosphatase and Runx-2 expression; settings: fluorescence microscopy
mesenchymal stem cells [5] = test: Real-time PCR of osteoblast-specific gene expression; settings: 1 µg/ml, percentage of that in osteogenic differentiation medium free of BFP 1, FIG. 5
mesenchymal stem cells [6] = test: Assay for mineralization by alizarin red staining during osteoblast differentiation; settings: compared with cells treated with BMP-7; FIG. 4
mesenchymal stem cells [7] = test: FACS analysis of osteoblast-specific surface proteins; settings: FIG. 6
[8] = ODM supplemented with BFP 1 versus ODM alone

GQGFSYPYKAVFSTQ [BFP 1, Gly-Gln-Gly-Phe-Ser-Tyr-Pro-Tyr-Lys-Ala-Val-Phe-Ser-Thr-Gln]
cell migration (mesenchymal stem cells [1]): more cells were observed to migrate
level of ALP (mesenchymal stem cells [2]): Significant increases
level of calcium (mesenchymal stem cells [2]): Significant increases
expression of CD44 (mesenchymal stem cells [3]): Higher levels of CD44
expression of alkaline phosphatase (mesenchymal stem cells [4]; 1 µg/ml, FIG. 10): expressed at higher levels
expression level of Runx-2 (mesenchymal stem cells [4]; 1 µg/ml, FIG. 11): higher expression level
expression of osteocalcin (mesenchymal stem cells [4]; ODM supplemented with 1 µg/ml versus ODM alone or supplemented with BMP-7, FIG. 9): expressed at a higher level
expression level of Runx2 (mesenchymal stem cells [5]): 178%
expression level of type 1 collagen (mesenchymal stem cells [5]): 171%
alizarin red staining (mineralization) compared with BMP-7 (mesenchymal stem cells [6]): more intense colors
expression of CD44 (mesenchymal stem cells [7]; 1 µg/ml in osteogenic differentiation medium): expressed at a higher level
expression of CD44 (mesenchymal stem cells [7]; ODM + BFP 1 versus ODM alone): induce the expression of CD44
expression of CD47 (mesenchymal stem cells [7]; [8]): expressed at higher levels
expression of CD51 (mesenchymal stem cells [7]; [8]): expressed at higher levels
